{"source": "patent US20070010664A1", "about": "“Gene expression in the central nervous system regulated by neuroleptic agents” (priority 2001, published 2007)", "key": {"apoD mRNA [1]": {"system": "apoD mRNA", "test": "Northern Blot analysis of CLZ_5 (apoD) in striatum/nucleus accumbens", "assay_type": "in vivo, mouse", "settings": "clozapine 7.5 mg/kg over the two-week time course"}, "[2]": {"system": "CLZ_43 (SEQ ID NO:37) mRNA", "test": "Real Time PCR validation of CLZ_43", "settings": "clozapine 12 days; haloperidol 14 days; relative to untreated mice"}, "apoD mRNA [3]": {"system": "apoD mRNA", "test": "In situ hybridization analysis of apoD (CLZ_5) in mouse brain", "assay_type": "in vivo", "settings": "clozapine 7.5 mg/kg five days and two weeks: striatum, cortex, globus pallidus, thalamus, white matter tracts; haloperidol: gray or white matter regions", "protocol": "In further characterization of CLZ—43, in situ hybridization analysis using an antisense cRNA probe directed against the 3′ end of CLZ—43 were performed to show the pattern of CLZ—43 mRNA expression (FIG. 4A-F). In situ hybridization was performed on free-floating coronal sections (25 μM thick) with an ^35S-labeled, single-stranded antisense cRNA probe of CLZ—43. Coronal sections were hybridized at 55° C for 16 hour with an ^35S-labeled, single-stranded antisense cRNA probe of CLZ—43 at 10^7 cpm/ml. The probe was synthesized from the 3′-ended cDNA TOGA™ clone using the Maxiscript Transcription Kit (Ambion, Austin, Tex.). Excess probe was removed by washing with 2×SSC (I×SSC=[…]) containing 14 mM β-mercaptoethanol (30 minutes), followed by incubation with 4 μg/ml ribonuclease in 0.5 M NaCl/0.05 M EDTA/0.05 M Tris-HCl, pH 7.5, for 1 hour at 37° C. High stringency washes were carried out at 55° C. for 2 hours in 0.5×SSC/50% formamide/0.01 M β-mercaptoethanol, and then at 68° C. for 1 hour in 0.1×SSC/0.01 M β-mercaptoethanol/0.5% sarkosyl. […]\nTo investigate additional sites of apoD induction, in situ hybridization analysis was performed on brains from saline- and clozapine-treated mice. […] Increases in apoD expression were also detected in white matter tracts, predominantly the corpus callosum (cc), anterior commissure, internal capsule (ic) and optic tract (opt). […]"}, "[4]": {"system": "CLZ_44 (SEQ ID NO:38) mRNA", "test": "Northern blot analysis of CLZ_44 in striatum/nucleus accumbens", "assay_type": "in vivo, mouse", "settings": "2 weeks of treatment; clozapine 7.5 mg/kg, haloperidol 4 mg/kg, ketanserin 4 mg/kg", "protocol": "FIG. 39 is a graphical representation of a Northern Blot analysis of clone CLZ—44 (ACGG 352) (SEQ ID NO:38), where an agarose gel containing poly A enriched mRNA from the striatum/nucleus accumbens of clozapine-treated mice as well as size standards was blotted after electrophoresis and probed with radiolabelled CLZ—44.\nIn further characterization of CLZ—44, Northern blot analyses were performed to determine the pattern of expression in the striatum/nucleus accumbens after 2 weeks of treatment of control mice, clozapine-treated mice, haloperidol-treated mice, and ketanserin-treated mice (FIG. 39). Ketanserin is a 5HT2A/2C—selective antagonist, and is used to determine serotonorgic involvement in these drug effects. FIG. 39 is a graphical representation of the described northern blot analyses."}, "apoD protein": {"system": "apoD protein", "test": "Immunohistochemistry of apoD protein in mouse brain", "assay_type": "in vivo", "settings": "response to clozapine; data not shown"}, "[5]": {"system": "apoD mRNA in mixed glial cell cultures", "test": "Northern Blot analysis of CLZ_5 in cultured glial cells", "assay_type": "cell-based, rat", "settings": "clozapine 100 nM and 1 μM for 1 week"}, "[6]": {"system": "mRNAs (DSTs) expressed in striatum/nucleus accumbens", "test": "TOGA analysis of mRNA from striatum/nucleus accumbens of neuroleptic-treated mice (Table 1)", "settings": "for CLZ_34 (NMDAR1) expression, TOGA: clozapine"}, "[7]": {"settings": "clozapine 45 minutes, 7 hours, 5, 12 and 14 days, striatum/nucleus accumbens"}}, "note": "At least one structure is not confirmed: it was looked up by name or label, or the drawing left a doubt.", "data": [{"smiles": "CN1CCN(C2=Nc3cc(Cl)ccc3Nc3ccccc32)CC1", "note": "[clozapine]", "values": [{"measurement": "apoD mRNA expression (900 bp mRNA), Northern", "setting": "apoD mRNA [1]", "value": "progressively up-regulated"}, {"measurement": "CLZ_43 expression, TOGA and Real Time PCR", "setting": "[2]", "value": "increases in expression"}, {"measurement": "apoD mRNA, in situ hybridization", "setting": "apoD mRNA [3]", "value": "increases in apoD mRNA"}, {"measurement": "CLZ_44 expression, Northern", "setting": "[4]", "value": "lack of effect"}, {"measurement": "apoD protein expression, immunohistochemistry", "setting": "apoD protein", "value": "Increase in protein expression"}, {"measurement": "apoD mRNA levels in mixed glial cell cultures, Northern", "setting": "[5]", "value": "down-regulated"}, {"measurement": "CLZ_64 expression, TOGA", "setting": "[6]; chronic clozapine treatment", "value": "up-regulated"}, {"measurement": "CLZ_43 (MspI CTAA 461) expression, TOGA", "setting": "[6]; clozapine 7.5 mg/kg, 12 days, striatum/nucleus accumbens", "value": "up-regulated"}, {"measurement": "CLZ_5 (CACC 201, apoD) expression, TOGA", "setting": "[6]; [7]", "value": "increases"}, {"measurement": "CLZ_40 (TTGT 266) expression, TOGA", "setting": "[6]; [7]", "value": "decreases"}, {"measurement": "CLZ_3 expression, TOGA", "setting": "[6]; clozapine treatment", "value": "up-regulated"}, {"measurement": "CLZ_16 expression, TOGA", "setting": "[6]; clozapine treatment", "value": "slightly down-regulated"}, {"measurement": "CLZ_17 expression, TOGA", "setting": "[6]; clozapine treatment", "value": "slightly down-regulated"}, {"measurement": "CLZ_24 expression, TOGA", "setting": "[6]; clozapine treatment", "value": "up-regulated"}, {"measurement": "CLZ_26 expression, TOGA", "setting": "[6]; clozapine treatment", "value": "slightly down-regulated"}, {"measurement": "CLZ_28 expression, TOGA", "setting": "[6]; clozapine treatment", "value": "down-regulated"}, {"measurement": "CLZ_44 expression, TOGA", "setting": "[6]; clozapine treatment", "value": "up-regulated"}, {"measurement": "CLZ_34 (NMDAR1) expression, TOGA", "setting": "[6]; 45 minutes and 7 hours", "value": "upregulated"}, {"measurement": "CLZ_34 (NMDAR1) expression, TOGA", "setting": "[6]; day 5 to 12 days", "value": "decreases to control level"}, {"measurement": "CLZ_34 (NMDAR1) expression, TOGA", "setting": "[6]; day 14", "value": "slight increase"}]}]}
